Data on 24 substances can be found in article PMC12447755 (Chemical Science, 2025).

HELM strings list residues between dots; [ac] is acetyl, [am] amide, other brackets name non-standard units.

The data set in a line: general procedure: Fmoc solid-phase peptide synthesis; Rink Amide MBHA low-loading resin (100–200 mesh, loading 0.3–0.4 mmol/g). Particulars: for final HPLC purity / isolated mass / final LC-MS purity: TFA salt; for isolated yield: calculated as TFA salt; for final HPLC purity / final LC-MS purity: HPLC.
Setting [1] is: whole synthesis, scale of the general procedure 0.1 mmol or 0.25 mmol.
[2] abbreviates: whole synthesis, scale 0.25 mmol.
[3] abbreviates: whole synthesis, scale 0.1 mmol.

In the case of C8–GCLKFIKKCL–NH2, the “final HPLC purity” value under setting [1] was found to be 95%. Also, under setting [2], the isolated yield is given as 9% and the isolated mass turned out to be 29 mg.

Regarding “PEPTIDE1{K.F.A.K.C.A.F.K.W.L.K.C.[am]}|CHEM1{[staple8]}$PEPTIDE1,CHEM1,5:R3-1:R1|PEPTIDE1,CHEM1,12:R3-1:R2$$$V2.0”, the “final HPLC purity” value (cyclisation step) stood at 96%.

As for “PEPTIDE1{F.C.K.W.A.F.K.W.C.K.K.[am]}|CHEM1{[staple8]}$PEPTIDE1,CHEM1,2:R3-1:R1|PEPTIDE1,CHEM1,9:R3-1:R2$$$V2.0”, the “final HPLC purity” value (cyclisation step) is on record as 99.5%.

Consider “PEPTIDE1{C.A.K.W.A.F.K.C.L.K.K.[am]}|CHEM1{[staple8]}$PEPTIDE1,CHEM1,1:R3-1:R1|PEPTIDE1,CHEM1,8:R3-1:R2$$$V2.0”, for which the “final HPLC purity” value (cyclisation step) is given as 98%.

Turning to “PEPTIDE1{F.C.K.W.A.F.K.W.C.K.K.[am]}|CHEM1{[stp12]}$PEPTIDE1,CHEM1,2:R3-1:R1|PEPTIDE1,CHEM1,9:R3-1:R2$$$V2.0”, the “final LC-MS purity” value (cyclisation step) came to 95%.

For the substance “PEPTIDE1{R.F.R.R.L.C.K.K.W.R.K.R.C.K.K.I.[am]}|CHEM1{[staple1]}$PEPTIDE1,CHEM1,6:R3-1:R1|PEPTIDE1,CHEM1,13:R3-1:R2$$$V2.0”, the “final HPLC purity” value (cyclisation step) stood at 99%.

For “Ac-TLKQFCKGVGKWCVK-NH2 (cysteine pairing not given here)”, under setting [1], the “final HPLC purity” value worked out at 84%. Under setting [2], the isolated yield is listed as 13% and the isolated mass stood at 57 mg.

In the case of “PEPTIDE1{F.C.K.W.A.F.K.W.C.K.K.[am]}$$$$V2.0”, under setting [1], the “final HPLC purity” value came to 92%. Further, under setting [2], the isolated yield is 25% and the isolated mass turned out to be 129.5 mg.

As for “PEPTIDE1{K.W.V.Q.N.Y.M.K.H.L.G.R.K.A.H.T.L.K.T.[am]}$$$$V2.0”, the “final HPLC purity” value under setting [1] turned out to be 96%. Under setting [3], the isolated yield is on record as 11% and the isolated mass worked out at 26 mg.

As to “PEPTIDE1{N.L.F.R.K.L.C.H.R.L.F.R.R.C.F.G.Y.T.L.R.[am]}|CHEM1{[staple1]}$PEPTIDE1,CHEM1,7:R3-1:R1|PEPTIDE1,CHEM1,14:R3-1:R2$$$V2.0”, where the note is “cyclisation step”, the “final HPLC purity” value is recorded as 99%.

Take “PEPTIDE1{F.A.K.C.A.F.K.W.L.K.C.[am]}|CHEM1{[staple8]}$PEPTIDE1,CHEM1,4:R3-1:R1|PEPTIDE1,CHEM1,11:R3-1:R2$$$V2.0”: where the note is “cyclisation step”, the “final HPLC purity” value was determined as 98%.

For “PEPTIDE1{K.W.V.Q.N.Y.C.K.H.L.G.R.K.C.H.T.L.K.T.[am]}|CHEM1{[staple1]}$PEPTIDE1,CHEM1,7:R3-1:R1|PEPTIDE1,CHEM1,14:R3-1:R2$$$V2.0”, the “final HPLC purity” value (cyclisation step) was determined as 82%.

For the substance “PEPTIDE1{[C8].G.C.L.K.F.I.K.K.C.L.[am]}|CHEM1{[staple1]}$PEPTIDE1,CHEM1,3:R3-1:R1|PEPTIDE1,CHEM1,10:R3-1:R2$$$V2.0”, the “final HPLC purity” value (cyclisation step) came out at 92%.

With “H-NLFRKLCHRLFRRCFGYTLR-NH2 (cysteine pairing not given here)”, the “final HPLC purity” value under setting [1] is 90%. Under setting [2], the isolated yield is listed as 5% and the isolated mass is 35 mg.

As to “PEPTIDE1{C.F.A.K.W.A.F.C.W.L.K.K.[am]}|CHEM1{[staple8]}$PEPTIDE1,CHEM1,1:R3-1:R1|PEPTIDE1,CHEM1,8:R3-1:R2$$$V2.0”, under “cyclisation step”, the “final HPLC purity” value is listed as 98%.

With “PEPTIDE1{K.W.V.Q.N.Y.C.K.H.L.G.R.K.C.H.T.L.K.T.[am]}$$$$V2.0”, the “final HPLC purity” value under setting [1] came out at 99%. For the same substance, under setting [2], the isolated yield was 2% and the isolated mass stood at 14 mg.

As for “PEPTIDE1{F.A.K.W.C.F.K.W.L.K.K.C.[am]}|CHEM1{[staple8]}$PEPTIDE1,CHEM1,5:R3-1:R1|PEPTIDE1,CHEM1,12:R3-1:R2$$$V2.0”, the “final HPLC purity” value (cyclisation step) stood at 98%.

For the substance “PEPTIDE1{F.C.K.W.A.F.K.W.C.K.K.[am]}|CHEM1{[stp8a]}$PEPTIDE1,CHEM1,2:R3-1:R1|PEPTIDE1,CHEM1,9:R3-1:R2$$$V2.0”, for the setting “cyclisation step”, the “final LC-MS purity” value was determined as 88%.

Take “PEPTIDE1{R.F.R.R.L.C.K.K.W.R.K.R.C.K.K.I.[am]}$$$$V2.0”: the “final HPLC purity” value under setting [1] turned out to be 69%. For the same substance, under setting [2], the isolated yield is 5% and the isolated mass is reported as 30 mg.

In the case of “PEPTIDE1{[ac].W.C.L.K.K.F.R.G.C.F.[am]}|CHEM1{[staple1]}$PEPTIDE1,CHEM1,3:R3-1:R1|PEPTIDE1,CHEM1,10:R3-1:R2$$$V2.0”, the “final HPLC purity” value (cyclisation step) is reported as 98%.

With “Ac-WCLKKFRGCF-NH2 (cysteine pairing not given here)”, under setting [1], the “final HPLC purity” value stood at 85%. Under setting [2], the isolated yield is reported as 15% and the isolated mass amounted to 51 mg.

With “PEPTIDE1{F.A.K.W.A.F.K.W.L.K.K.[am]}$$$$V2.0”, the “final HPLC purity” value under setting [1] was 97%. Further, under setting [3], the isolated yield is 36% and the isolated mass was 72.4 mg.

For “PEPTIDE1{R.F.R.R.L.R.K.K.W.R.K.R.L.K.K.I.[am]}$$$$V2.0”, under setting [1], the “final HPLC purity” value was 90%. Under setting [3], the isolated yield is reported as 16% and the isolated mass was determined as 37 mg.

For “PEPTIDE1{F.C.K.W.A.F.K.W.C.K.K.[am]}|CHEM1{[staple1]}$PEPTIDE1,CHEM1,2:R3-1:R1|PEPTIDE1,CHEM1,9:R3-1:R2$$$V2.0”, the “final HPLC purity” value (cyclisation step) was determined as 98%.
